Results are given in words; binding and its absence hold for the method and conditions named. Binding seen in cells or lysates may run through a third protein. Some binding calls cover weakened binding; strength is not graded here.
Target: Flag-GFP-XPC (knock-in, HCT116) (human (endogenous in HCT116)) (UniProt Q01831)
Experiment: co-IP; GFP-Trap beads on GFP-XPC from 1% formaldehyde-crosslinked, sonicated nuclear lysate (RIPA buffer) of GFP-XPC KI HCT116 cells; cells treated with 600 uM oxaliplatin or cisplatin for 2, 4 or 6 h or 30 J/m^2 UV-C and 30 min repair; overnight at 4 C; crosslinks reverted, immunoblot

The chains behind the UniProt entries cited, without tags or fusion partners.
UniProt Q01831: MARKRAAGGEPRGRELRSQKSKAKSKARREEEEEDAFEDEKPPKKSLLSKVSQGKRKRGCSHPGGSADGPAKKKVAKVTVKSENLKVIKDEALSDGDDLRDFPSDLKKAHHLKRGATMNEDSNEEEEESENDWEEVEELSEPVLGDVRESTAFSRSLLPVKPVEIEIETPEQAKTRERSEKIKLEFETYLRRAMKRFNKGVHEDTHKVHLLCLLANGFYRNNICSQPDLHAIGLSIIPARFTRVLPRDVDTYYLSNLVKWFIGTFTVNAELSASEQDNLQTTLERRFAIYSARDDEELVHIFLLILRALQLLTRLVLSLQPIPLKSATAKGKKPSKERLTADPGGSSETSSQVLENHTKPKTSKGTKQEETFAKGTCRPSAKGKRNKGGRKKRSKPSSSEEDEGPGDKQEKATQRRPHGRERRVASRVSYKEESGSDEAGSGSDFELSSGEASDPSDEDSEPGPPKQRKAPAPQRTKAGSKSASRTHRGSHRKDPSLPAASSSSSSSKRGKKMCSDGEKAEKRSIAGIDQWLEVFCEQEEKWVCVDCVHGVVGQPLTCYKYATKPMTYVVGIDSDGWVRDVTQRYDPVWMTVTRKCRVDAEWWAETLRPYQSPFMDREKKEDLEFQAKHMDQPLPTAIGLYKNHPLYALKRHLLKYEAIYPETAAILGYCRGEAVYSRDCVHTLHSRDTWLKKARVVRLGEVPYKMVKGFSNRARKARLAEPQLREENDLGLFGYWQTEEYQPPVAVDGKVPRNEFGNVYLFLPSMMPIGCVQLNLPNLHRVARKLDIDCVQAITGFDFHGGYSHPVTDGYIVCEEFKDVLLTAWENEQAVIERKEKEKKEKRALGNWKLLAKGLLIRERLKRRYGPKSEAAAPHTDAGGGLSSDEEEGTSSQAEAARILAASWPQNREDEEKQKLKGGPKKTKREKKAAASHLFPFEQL
UniProt Q92466: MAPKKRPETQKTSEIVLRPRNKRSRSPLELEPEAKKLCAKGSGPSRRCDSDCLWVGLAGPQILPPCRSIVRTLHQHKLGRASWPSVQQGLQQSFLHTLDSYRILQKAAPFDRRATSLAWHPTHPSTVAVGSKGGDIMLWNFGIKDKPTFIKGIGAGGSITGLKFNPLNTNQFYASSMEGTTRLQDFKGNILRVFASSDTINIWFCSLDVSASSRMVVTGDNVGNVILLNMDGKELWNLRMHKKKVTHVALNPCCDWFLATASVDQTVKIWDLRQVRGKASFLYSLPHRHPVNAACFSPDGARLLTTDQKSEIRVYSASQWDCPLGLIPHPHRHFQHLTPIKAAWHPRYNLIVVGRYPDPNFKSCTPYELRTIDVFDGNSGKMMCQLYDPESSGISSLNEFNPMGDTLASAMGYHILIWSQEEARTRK

- binding: binds
Substance: DDB2 (from UniProt Q92466 1-427)

Source: paper PMC10696645
